According to PubChem BioAssay AID2685 (National Center for Advancing Translational Sciences (NCATS), 2010):
The other results are listed elsewhere or left out. These are further read-outs of the screen, such as a control signal, another cell line or another target. No call is given for them. Most of these compounds were active or inconclusive in the main read-out, so they are no random draw. Words in brackets tell the shape of the fitted curve; partial curves, single points and poor fits give uncertain potencies.

Assay: qHTS Assay for Lipid Storage Modulators in Drosophila S3 Cells;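 for cell number change: cells counted by Cell Tracker Red CMTPX staining in the red channel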
Conditions: BODIPY lipid droplet fluorescence, 18-24 h; for cell number change: measured here: cell count max response, cells fed with added oleic acid
Method in brief: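 Laser-scanning cytometry quantifies lipid droplet accumulation (500–530 nm total intensity; droplet/cell object ratio) in oleic acid-fed (400 uM added) Drosophila S3 cells treated with a concentration series. 20 uM Triacsin C defined 100% inhibition.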

[1] = measured here: cell number channel AC50, cells fed with added oleic acid
[2] = measured here: lipid fluorescence (Fed channel) AC50, cells fed with added oleic acid

SMILES | cell number change [%] | AC50 [1] | AC50 [2]
Cc1ccnc(NS(=O)(=O)c2ccc(NC(=O)c3ccc(S(=O)(=O)N(C)C)cc3)cc2)n1 | -57.7 | 1.64 µM [falling, partial curve, poor fit] | 20.6 µM [falling, single point]
Nc1nnc(SCC(=O)Nc2ccc(N3CCOCC3)c(Cl)c2)s1 | -15.5 | – | 1.3 µM [falling, full curve]
COc1ccc(Cn2nnnc2C(c2ccc(F)cc2)N2CCN(C3CCCC3)CC2)cc1 (stereo not given) | 1.89 | – | 4.11 µM [falling, single point]
Cc1ccc(C(=O)/C=C/NCc2ccc(F)cc2)cc1 | 11 | – | 0.58 µM [rising, single point]
O=C(NCc1cccc(C(F)(F)F)c1)C1CCCN(c2cnccn2)C1 (stereo not given) | 3.58 | – | 1.84 µM [rising, partial curve, poor fit]
COc1ccccc1NS(=O)(=O)c1cccc(NC(=O)Cc2cccs2)c1 | 12.3 | – | 14.6 µM [rising, single point]
Cc1ccc(C)c(CSc2nnc([C@@H](N)C(C)C)o2)c1 | 41.5 | 2.06 µM [rising, full curve] | 0.651 µM [rising, single point]
C=CCN(N=Nc1cccc([N+](=O)[O-])c1)c1cccc([N+](=O)[O-])c1 | 81.3 | – | 1.64 µM [rising, partial curve]
CCOc1ccc(CCNC(=O)CSc2nn(-c3ccc(C)c(Cl)c3)c(=S)s2)cc1OCC | -20.6 | – | 8.2 µM [falling, partial curve]
O=C(O)[C@]1(S(=O)(=O)c2ccccc2)C[C@@H]2ON=C(c3cccc(Br)c3)[C@@H]2C1 | 32.4 | 32.6 µM [rising, partial curve, poor fit] | 6.51 µM [falling, partial curve]
O=C(Nc1ccccc1)c1cccc(N2C(=O)CCC2=O)c1 | 0.809 | – | 6.51 µM [falling, single point]
O=C(NC1CCCCC1)N(Cc1ccc(F)cc1)Cc1nc2ccccc2c(=O)[nH]1 | -29.3 | – | 0.058 µM [rising, full curve, poor fit]
CCOC(=O)c1c(C)c(-c2ccccc2)n(CC(=O)NCCC(C)C)c1C | – | – | 1.3 µM [rising, partial curve]
CCN(CC)S(=O)(=O)c1ccc(/C=C/C(=O)Nc2cccc(F)c2)cc1 | – | – | 29.1 µM [rising, single point]
O=C(COc1ccc(Cl)cc1)NNC(=S)NCc1ccccc1 | 2.63 | – | 5.62 µM [falling, single point]
Cc1[nH]n(-c2ccccc2)c(=O)c1/C=C1/C=c2ccccc2=N1 | -35.6 | – | 29.1 µM [falling, partial curve]
N=C(c1ccc([N+](=O)[O-])cc1)N1CCCCCC1 | 31 | – | –
Cc1nn(Cc2ccc(Cl)cc2Cl)c(C)c1NC(=O)c1sc2ccccc2c1Cl | -50 | – | 20.6 µM [falling, single point]
Oc1ccc(-c2cccc(-c3ccc(O)cc3)c2)cc1 | -20.4 | – | 29.1 µM [falling, single point]

SMILES | cell number change [%] | AC50 [1] | AC50 [2]
O=C(Nc1ccc(C(=O)NCc2ccccc2Cl)cc1)C1=CSCCO1 | 12.5 | – | 16.4 µM [rising, single point]
CC1CCN(C(=O)C2CCN(c3ncnc4c3nc3n4CCCCC3)CC2)CC1 | – | – | 2.91 µM [falling, full curve]
COC(=O)c1cc(OC)c(OC)cc1NC(=O)c1ccc(C)o1 | – | – | 0.259 µM [rising, full curve]
CCCCCC(=O)O/N=C(\C)c1ccn(S(=O)(=O)c2ccccc2)c1 | -28.1 | – | 29.1 µM [falling, single point]
Cc1c(Cl)c([N+](=O)[O-])nn1CC(=O)NCCCN1CCOCC1 | – | – | 1.84 µM [falling, partial curve]
CCCCN1CCc2c(c3ccccc3n2Cc2ccccc2)C1 | -33.1 | 29.1 µM [falling, single point] | 29.1 µM [falling, single point]
CCc1nnc(NC(=O)CN2C(=O)/C(=C/c3ccc(OC)c(OC)c3)SC2=S)s1 | 43.2 | 29.1 µM [rising, single point] | 6.51 µM [falling, single point]
Cc1ccc(N(CC(=O)NC2CCCC2)C(=O)Cn2nnc(-c3ccccc3F)n2)cc1 | -21.1 | – | 5.62 µM [falling, single point]
Cc1nn(C(C)C(=O)NCCN2CCCCCC2)c(=O)c2nn(-c3ccccc3)c(C)c12 (stereo not given) | 33.6 | 18.4 µM [rising, single point] | –
COc1ccc(OC)c(-c2c[n+](=O)c3c(n2[O-])CCCC3)c1 | 1.43 | – | –
C=CCN(CC=C)CC(O)Cn1c2ccccc2c2ccccc21 (stereo not given) | -93.9 | 18.4 µM [falling, partial curve] | –
Cc1ccc(C(=O)N/C(=C/c2ccc(Cl)cc2)C(=O)NCC2CCCO2)cc1 (stereo not given) | 4.95 | – | 29.1 µM [rising, single point]
Nc1nonc1-n1nncc1-c1ccccc1 | 14.1 | 0.82 µM [rising, full curve, poor fit] | –
CC1CN(C(=O)Cc2ccc(-c3ccccc3)cc2)CC(C)O1 (stereo not given) | 38.4 | 0.731 µM [rising, partial curve] | 23.1 µM [falling, single point]
COC(=O)c1ccccc1NC(=O)NC1CCC(C)CC1 (stereo not given) | 20 | – | 0.184 µM [rising, full curve, poor fit]
CCOC(=O)CSc1nc(-c2ccccc2)nc2ccc(F)cc12 | 8.77 | – | –
CC(C)Nc1nc(-c2cccnc2)nc(-c2ccccc2)c1C#N | 15.6 | – | 4.61 µM [falling, partial curve, poor fit]
O=[N+]([O-])c1cccc(-c2ccc(/C=N/NC(=S)NCc3ccco3)o2)c1 | 11 | 0.58 µM [rising, full curve, poor fit] | –
COc1ccc(-c2oc(/N=C/N3CCCC3)c(C#N)c2-c2ccc(OC)cc2)cc1 | 88.6 | 20.6 µM [rising, partial curve, poor fit] | 1.46 µM [rising, partial curve]

Pulled by compound from above (2):
SMILES | cell number change [%] | AC50 [1] | AC50 [2]
Cc1ccc(N(CC(=O)NC2CCCC2)C(=O)Cn2nnc(-c3ccccc3F)n2)cc1 | -21.1 | – | 5.62 µM [falling, single point]
Cc1ccc(C(=O)N/C(=C/c2ccc(Cl)cc2)C(=O)NCC2CCCO2)cc1 (stereo not given) | 4.95 | – | 29.1 µM [rising, single point]
